Test results taken from the supplement of paper PMC10849652.
This is one part of the list.

The chains behind the UniProt entries cited, without tags or fusion partners. Where a name states a change or a piece, a line headed by the entry shows the natural chain unless it says otherwise.
UniProt Q9P1Y6: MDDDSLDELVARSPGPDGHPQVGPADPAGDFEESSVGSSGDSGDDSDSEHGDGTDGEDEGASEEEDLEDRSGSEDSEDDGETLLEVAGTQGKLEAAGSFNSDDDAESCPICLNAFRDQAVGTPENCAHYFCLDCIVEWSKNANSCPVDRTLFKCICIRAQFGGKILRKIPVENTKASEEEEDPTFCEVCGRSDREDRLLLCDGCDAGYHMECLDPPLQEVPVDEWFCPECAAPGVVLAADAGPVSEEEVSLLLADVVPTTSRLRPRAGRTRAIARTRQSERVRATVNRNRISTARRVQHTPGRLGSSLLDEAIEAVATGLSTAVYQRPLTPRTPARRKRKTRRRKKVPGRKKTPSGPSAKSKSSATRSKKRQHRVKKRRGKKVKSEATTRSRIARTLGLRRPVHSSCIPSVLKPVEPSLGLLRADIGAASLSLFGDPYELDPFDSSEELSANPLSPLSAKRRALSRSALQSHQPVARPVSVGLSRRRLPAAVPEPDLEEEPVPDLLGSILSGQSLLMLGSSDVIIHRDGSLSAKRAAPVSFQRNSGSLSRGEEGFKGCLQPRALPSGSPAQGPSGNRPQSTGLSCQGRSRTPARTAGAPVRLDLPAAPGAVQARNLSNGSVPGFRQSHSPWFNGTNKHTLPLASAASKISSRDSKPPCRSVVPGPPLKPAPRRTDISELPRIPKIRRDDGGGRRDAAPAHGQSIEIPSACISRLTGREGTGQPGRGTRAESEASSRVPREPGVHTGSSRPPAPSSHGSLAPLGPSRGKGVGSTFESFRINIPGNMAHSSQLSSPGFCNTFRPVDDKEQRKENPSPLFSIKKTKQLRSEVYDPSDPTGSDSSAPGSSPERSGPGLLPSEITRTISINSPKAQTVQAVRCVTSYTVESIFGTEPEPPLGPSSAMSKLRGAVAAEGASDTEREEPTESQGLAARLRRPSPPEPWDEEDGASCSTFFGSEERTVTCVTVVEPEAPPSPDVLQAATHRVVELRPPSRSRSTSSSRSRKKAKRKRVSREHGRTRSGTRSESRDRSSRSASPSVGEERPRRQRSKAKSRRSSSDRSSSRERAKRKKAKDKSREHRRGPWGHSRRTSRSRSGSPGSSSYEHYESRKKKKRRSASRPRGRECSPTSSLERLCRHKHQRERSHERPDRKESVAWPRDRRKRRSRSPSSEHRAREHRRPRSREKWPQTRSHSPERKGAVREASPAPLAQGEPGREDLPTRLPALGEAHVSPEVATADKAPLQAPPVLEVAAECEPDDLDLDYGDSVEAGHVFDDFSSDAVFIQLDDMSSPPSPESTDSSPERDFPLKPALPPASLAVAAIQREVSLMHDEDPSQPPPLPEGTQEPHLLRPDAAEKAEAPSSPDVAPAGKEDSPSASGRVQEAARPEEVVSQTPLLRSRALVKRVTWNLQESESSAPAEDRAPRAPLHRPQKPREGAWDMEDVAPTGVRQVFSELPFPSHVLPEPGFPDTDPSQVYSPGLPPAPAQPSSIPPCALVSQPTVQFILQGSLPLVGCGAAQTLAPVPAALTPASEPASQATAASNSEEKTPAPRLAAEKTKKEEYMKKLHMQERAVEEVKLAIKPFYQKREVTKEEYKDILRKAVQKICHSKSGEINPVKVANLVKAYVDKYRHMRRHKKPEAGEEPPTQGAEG
UniProt Q8NCC3: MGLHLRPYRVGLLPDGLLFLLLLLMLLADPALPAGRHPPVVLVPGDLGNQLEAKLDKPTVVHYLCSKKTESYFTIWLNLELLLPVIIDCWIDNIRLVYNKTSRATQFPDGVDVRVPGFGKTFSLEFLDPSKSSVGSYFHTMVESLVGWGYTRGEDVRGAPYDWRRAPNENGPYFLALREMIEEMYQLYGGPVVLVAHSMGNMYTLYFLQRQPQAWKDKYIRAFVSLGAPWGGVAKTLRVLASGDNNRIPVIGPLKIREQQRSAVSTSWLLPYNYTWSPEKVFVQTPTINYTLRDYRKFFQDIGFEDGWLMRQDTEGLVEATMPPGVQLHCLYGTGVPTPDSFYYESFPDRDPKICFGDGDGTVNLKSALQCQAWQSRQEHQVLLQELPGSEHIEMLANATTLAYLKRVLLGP
UniProt Q92521: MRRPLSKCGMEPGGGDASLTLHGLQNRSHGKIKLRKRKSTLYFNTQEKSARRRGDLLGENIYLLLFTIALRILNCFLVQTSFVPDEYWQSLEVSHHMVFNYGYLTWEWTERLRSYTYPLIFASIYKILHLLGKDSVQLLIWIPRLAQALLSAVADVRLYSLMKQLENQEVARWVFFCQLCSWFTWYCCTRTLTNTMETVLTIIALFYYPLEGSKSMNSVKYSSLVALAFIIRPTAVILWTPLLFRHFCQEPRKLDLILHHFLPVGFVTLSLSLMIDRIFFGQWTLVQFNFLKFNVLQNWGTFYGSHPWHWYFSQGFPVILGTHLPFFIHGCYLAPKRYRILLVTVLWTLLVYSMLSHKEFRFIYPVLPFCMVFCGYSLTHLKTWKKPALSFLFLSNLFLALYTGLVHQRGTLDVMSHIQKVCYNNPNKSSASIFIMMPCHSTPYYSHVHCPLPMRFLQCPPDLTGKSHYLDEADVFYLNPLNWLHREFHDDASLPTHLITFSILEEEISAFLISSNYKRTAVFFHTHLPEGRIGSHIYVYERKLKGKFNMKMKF
UniProt Q13492: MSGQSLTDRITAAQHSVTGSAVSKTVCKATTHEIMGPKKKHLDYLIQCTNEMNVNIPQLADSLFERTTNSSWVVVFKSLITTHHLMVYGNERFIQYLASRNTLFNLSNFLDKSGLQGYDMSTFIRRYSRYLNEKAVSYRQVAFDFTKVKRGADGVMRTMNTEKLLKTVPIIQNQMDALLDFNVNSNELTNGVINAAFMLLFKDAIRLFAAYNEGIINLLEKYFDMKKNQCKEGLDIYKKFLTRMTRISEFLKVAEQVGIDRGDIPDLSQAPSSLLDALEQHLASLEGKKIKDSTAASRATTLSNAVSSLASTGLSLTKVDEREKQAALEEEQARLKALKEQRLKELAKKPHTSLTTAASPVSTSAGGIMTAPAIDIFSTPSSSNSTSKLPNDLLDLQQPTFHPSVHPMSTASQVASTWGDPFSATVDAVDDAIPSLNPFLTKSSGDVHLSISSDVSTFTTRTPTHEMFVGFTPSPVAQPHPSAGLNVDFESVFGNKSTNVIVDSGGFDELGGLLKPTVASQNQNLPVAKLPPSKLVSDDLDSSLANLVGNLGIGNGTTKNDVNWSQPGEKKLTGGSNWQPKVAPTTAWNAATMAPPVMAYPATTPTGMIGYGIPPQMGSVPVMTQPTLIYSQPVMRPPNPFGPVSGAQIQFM
UniProt Q14442: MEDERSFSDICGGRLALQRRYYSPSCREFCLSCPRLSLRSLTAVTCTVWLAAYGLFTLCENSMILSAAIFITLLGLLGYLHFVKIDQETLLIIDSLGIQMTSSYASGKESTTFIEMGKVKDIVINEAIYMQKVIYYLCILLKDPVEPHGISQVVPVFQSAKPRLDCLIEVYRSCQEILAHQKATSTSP
UniProt Q8NHP8: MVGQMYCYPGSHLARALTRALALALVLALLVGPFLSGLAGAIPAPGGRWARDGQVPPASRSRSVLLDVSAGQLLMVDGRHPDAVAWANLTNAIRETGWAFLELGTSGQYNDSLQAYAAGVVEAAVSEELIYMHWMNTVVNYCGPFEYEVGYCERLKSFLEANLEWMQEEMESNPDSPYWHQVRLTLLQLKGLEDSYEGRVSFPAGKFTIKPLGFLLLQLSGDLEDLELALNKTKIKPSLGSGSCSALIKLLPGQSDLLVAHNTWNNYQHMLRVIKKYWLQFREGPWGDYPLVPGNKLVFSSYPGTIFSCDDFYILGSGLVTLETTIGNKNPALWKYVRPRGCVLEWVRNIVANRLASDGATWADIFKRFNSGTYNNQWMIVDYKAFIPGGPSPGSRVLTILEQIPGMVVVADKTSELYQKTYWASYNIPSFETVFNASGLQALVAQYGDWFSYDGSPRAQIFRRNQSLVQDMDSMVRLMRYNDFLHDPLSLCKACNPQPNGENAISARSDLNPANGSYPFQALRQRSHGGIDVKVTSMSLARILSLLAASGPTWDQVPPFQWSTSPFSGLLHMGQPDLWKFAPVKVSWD
UniProt Q00169: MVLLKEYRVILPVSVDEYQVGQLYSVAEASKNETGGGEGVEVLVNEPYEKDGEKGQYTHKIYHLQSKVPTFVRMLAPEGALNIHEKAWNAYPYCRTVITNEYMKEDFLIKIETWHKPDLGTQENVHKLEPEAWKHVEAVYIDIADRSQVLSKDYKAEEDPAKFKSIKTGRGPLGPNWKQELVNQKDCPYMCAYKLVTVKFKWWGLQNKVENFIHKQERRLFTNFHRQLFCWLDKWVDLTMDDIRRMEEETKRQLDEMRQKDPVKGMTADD
UniProt O43164: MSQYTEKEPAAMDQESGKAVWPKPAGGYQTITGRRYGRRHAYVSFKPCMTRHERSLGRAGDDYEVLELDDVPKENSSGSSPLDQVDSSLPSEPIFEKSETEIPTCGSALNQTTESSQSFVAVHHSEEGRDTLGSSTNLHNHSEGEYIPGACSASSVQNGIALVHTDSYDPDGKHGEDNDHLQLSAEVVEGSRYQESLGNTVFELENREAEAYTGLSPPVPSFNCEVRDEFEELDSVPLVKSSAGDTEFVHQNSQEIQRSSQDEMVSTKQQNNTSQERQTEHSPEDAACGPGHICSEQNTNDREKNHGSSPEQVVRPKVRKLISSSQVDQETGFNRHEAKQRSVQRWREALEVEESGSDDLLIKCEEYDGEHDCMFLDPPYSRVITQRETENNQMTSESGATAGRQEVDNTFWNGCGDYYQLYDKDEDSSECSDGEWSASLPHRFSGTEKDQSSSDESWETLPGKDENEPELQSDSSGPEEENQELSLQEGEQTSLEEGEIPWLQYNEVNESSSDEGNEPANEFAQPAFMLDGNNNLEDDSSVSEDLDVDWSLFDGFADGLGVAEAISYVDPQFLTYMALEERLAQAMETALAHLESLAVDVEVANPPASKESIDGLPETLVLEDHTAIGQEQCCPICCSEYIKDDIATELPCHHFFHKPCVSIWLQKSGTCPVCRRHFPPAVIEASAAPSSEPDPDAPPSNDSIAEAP
UniProt P48426: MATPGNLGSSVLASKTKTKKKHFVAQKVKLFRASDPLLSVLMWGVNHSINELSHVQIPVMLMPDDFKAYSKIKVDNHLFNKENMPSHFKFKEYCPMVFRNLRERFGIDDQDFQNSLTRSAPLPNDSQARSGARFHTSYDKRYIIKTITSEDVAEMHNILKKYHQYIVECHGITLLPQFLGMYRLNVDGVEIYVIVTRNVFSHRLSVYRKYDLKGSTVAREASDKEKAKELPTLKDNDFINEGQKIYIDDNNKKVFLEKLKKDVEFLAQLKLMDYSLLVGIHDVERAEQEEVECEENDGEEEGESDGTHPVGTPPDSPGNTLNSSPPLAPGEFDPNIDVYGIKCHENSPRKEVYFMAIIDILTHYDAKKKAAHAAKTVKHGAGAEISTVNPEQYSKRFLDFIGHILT
UniProt P37287: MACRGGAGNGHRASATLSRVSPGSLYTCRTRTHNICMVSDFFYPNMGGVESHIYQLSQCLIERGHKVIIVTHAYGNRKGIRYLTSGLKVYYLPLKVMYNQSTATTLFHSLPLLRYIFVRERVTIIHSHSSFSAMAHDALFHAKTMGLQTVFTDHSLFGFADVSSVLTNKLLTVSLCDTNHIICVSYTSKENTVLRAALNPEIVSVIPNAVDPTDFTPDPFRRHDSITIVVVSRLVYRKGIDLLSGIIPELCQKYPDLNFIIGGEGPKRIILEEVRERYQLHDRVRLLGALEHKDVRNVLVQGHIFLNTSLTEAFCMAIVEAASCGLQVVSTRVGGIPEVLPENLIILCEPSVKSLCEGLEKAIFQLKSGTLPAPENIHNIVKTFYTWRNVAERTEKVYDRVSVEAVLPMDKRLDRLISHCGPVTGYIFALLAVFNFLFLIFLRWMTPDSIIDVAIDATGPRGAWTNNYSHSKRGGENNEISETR
UniProt Q7RTV0, whole entry, looked up: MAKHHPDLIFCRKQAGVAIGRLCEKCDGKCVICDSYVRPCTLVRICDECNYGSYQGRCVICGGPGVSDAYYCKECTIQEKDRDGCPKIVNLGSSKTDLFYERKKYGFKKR
UniProt P36871: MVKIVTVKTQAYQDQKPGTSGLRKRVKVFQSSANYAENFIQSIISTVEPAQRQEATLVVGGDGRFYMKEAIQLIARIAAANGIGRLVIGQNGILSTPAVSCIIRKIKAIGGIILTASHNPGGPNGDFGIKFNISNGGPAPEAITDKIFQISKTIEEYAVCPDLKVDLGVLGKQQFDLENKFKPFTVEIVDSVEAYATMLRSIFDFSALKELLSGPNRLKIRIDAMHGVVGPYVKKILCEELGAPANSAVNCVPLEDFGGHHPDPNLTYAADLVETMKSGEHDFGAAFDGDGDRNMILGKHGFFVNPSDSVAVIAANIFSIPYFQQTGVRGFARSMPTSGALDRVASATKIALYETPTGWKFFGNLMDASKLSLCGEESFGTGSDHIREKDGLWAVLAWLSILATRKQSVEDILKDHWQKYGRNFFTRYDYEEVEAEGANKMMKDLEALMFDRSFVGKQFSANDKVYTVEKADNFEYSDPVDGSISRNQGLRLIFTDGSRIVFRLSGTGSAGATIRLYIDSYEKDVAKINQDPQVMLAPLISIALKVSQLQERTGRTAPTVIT

How the values were obtained:
Assay in all cases: log2 fold change, soluble protein after heating vs DMSO (PISA); higher = thermal stabilisation; K562 lysate, 10 uM; active = over 0.2 and 3.5 SD of the protein, either way, in both replicates (recomputed)
[1] = compound: C1=CC=C(C=C1)[C@H](COC2=CC3=C(C=C2)NC(=O)N3)NC(=O)C4=CC=CN(C4=O)CC5=CC(=C(C=C5)F)F
In short: (§1)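 Log-two fold change in thermal stability relative to solvent controls is reported from duplicates. For each sample, crude K562 extract from dounce-homogenised pellets in PBS pH 7.4 with 1 mM MgCl2, at 1 mg/mL protein, was treated with 10 μM compound for 30 min. Aliquots heated for 3 min across 48°C-58°C were pooled, brought to 0.5% NP-40 at 4°C and cleared at 21,000xg for 90 min. The supernatant was quantified by TMTpro 16plex LC-MS/MS with channel sums equalised.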

[2] = compound: CC1=C(SC2=C1C(=N[C@H](C3=NN=C(N32)C)CC(=O)N)C4=CC=C(C=C4)Cl)C
In short: as §1

[3] = compound: CC1=C2C(=CC=C1)N=C(N(C2=O)C3=CC=CC=C3C)CN4C=NC5=C(N=CN=C54)N
In short: as §1

[4] = compound: Cc1sc2c(c1C)C(c1ccc(Cl)cc1)=N[C@@H](CC(=O)OC(C)(C)C)c1nnc(C)n1-2
In short: as §1

[5] = compound: c1ccc([C@@H]2C[C@H]2NC2CCNCC2)cc1
In short: as §1

Measured: log2 fold change

PHRF1 (UniProt Q9P1Y6)
inactive: [1] 0.07 | [2] 0.033 | [3] -0.032 | [4] 0.032 | [5] -0.015

PLA2G15 (UniProt Q8NCC3)
inactive: [1] -0.005 | [2] 0.009 | [3] 0.021 | [4] -0.002 | [5] -0.022

PIGB (UniProt Q92521)
inactive: [1] 0.105 | [2] -0.029 | [3] 0.119 | [5] -0.001

PICALM (UniProt Q13492)
inactive: [1] -0.014 | [2] 0.027 | [3] 0.016 | [4] 0.005 | [5] 0.007

PIGH (UniProt Q14442)
inactive: [1] 0.02 | [2] -0.045 | [3] 0.042 | [5] -0.109

2 records drawn at random from the list so far, as already listed:
PICALM (UniProt Q13492)
inactive: [1] -0.014 | [2] 0.027 | [3] 0.016 | [4] 0.005 | [5] 0.007

PHRF1 (UniProt Q9P1Y6)
inactive: [1] 0.07 | [2] 0.033 | [3] -0.032 | [4] 0.032 | [5] -0.015

More records follow:

PKN1 isoform 2 (UniProt Q16512)
inactive: [1] -0.003 | [2] 0.017 | [3] 0.023 | [4] 0.029 | [5] 0.022

PHLDB1 (UniProt Q86UU1)
inactive: [1] -0.006 | [2] 0.007 | [3] 0.054 | [4] -0.027 | [5] 0.036

PIP4K2B (UniProt P78356)
inactive: [1] -0.063 | [2] -0.078 | [3] -0.014 | [4] 0.036 | [5] -0.108

PI4KA (UniProt P42356)
inactive: [1] -0.08 | [2] -0.012 | [3] 0.057 | [4] -0.019 | [5] -0.018

PLBD2 (UniProt Q8NHP8)
inactive: [1] 0.02 | [2] -0.018 | [3] -0.016 | [4] 0.002 | [5] -0.017

PITPNA (UniProt Q00169)
inactive: [1] 0.026 | [2] 0.035 | [3] 0.02 | [4] -0.048 | [5] 0.044

PHF19 isoform 2 (UniProt Q5T6S3)
inactive: [1] -0.201 | [2] -0.102 | [3] -0.16 | [5] 0.054

PGPEP1 (UniProt Q9NXJ5)
inactive: [1] 0.027 | [2] -0.071 | [3] -0.013 | [4] -0.025 | [5] 0.012

PLEKHA5 isoform 6 (UniProt Q9HAU0)
inactive: [1] 0 | [2] -0.112 | [3] -0.06 | [4] -0.013 | [5] 0.045

PLCL1 (UniProt Q15111)
inactive: [1] -0.011 | [2] -0.004 | [3] 0.029 | [4] -0.062 | [5] 0.065

PJA2 (UniProt O43164)
inactive: [1] 0.012 | [2] 0.046 | [3] -0.011 | [4] 0.004 | [5] -0.097

PLCB3 (UniProt Q01970)
inactive: [1] 0.021 | [2] 0.016 | [3] 0.031 | [4] 0.008 | [5] 0.02

PIP4K2A (UniProt P48426)
inactive: [1] -0.093 | [2] -0.053 | [3] -0.041 | [4] -0.05 | [5] -0.106

PHF21A isoform 3 (UniProt Q96BD5)
inactive: [1] -0.054 | [2] -0.033 | [3] 0.005 | [4] 0.073 | [5] 0.051

PIGA (UniProt P37287)
inactive: [1] -0.077 | [2] 0.027 | [3] -0.021 | [4] -0.019 | [5] -0.044

PGRMC1 (UniProt O00264)
inactive: [1] 0.073 | [2] -0.038 | [3] 0.008 | [4] -0.031 | [5] -0.039

PGM3 isoform 4 (UniProt O95394)
inactive: [1] -0.001 | [2] 0.009 | [3] -0.016 | [4] 0.026 | [5] 0.054

PHF5A (UniProt Q7RTV0)
inactive: [1] 0.014 | [2] -0.015 | [3] -0.045 | [4] 0.046 | [5] -0.078

PHF3 (UniProt Q92576)
inactive: [1] 0.017 | [2] 0.007 | [3] 0.06 | [4] -0.05 | [5] -0.058

PIK3R1 (UniProt P27986)
inactive: [1] -0.014 | [2] -0.065 | [3] 0.313 | [4] -0.024 | [5] -0.007

PIDD1 (UniProt Q9HB75)
inactive: [4] 0.093

PLEKHA8 (UniProt Q96JA3)
inactive: [4] -0.14

PLAU (UniProt P00749)
inactive: [4] -0.177

PGK2 (UniProt P07205)
inactive: [3] -0.023 | [5] 0.067

PIGL (UniProt Q9Y2B2)
inactive: [1] 0.024 | [2] 0.155 | [4] -0.009

PGM1 isoform 2 (UniProt P36871)
inactive: [4] -0.095

PHF13 (UniProt Q86YI8)
inactive: [1] 0.098 | [2] -0.007 | [5] -0.357
